Test results published in article PMC10111413 (ACS Infectious Diseases, 2023).

Key:
[1] = general procedure: Fmoc solid-phase peptide synthesis; 2-chlorotrityl (2-CT) resin; BOP/DIPEA; details: whole synthesis, scale of the general procedure 0.25 mmol
[2] = general procedure: Fmoc solid-phase peptide synthesis; 2-CT; BOP/DIPEA; details: whole synthesis, over 30 steps, scale 0.25 mmol

Row | Substance | isolated yield ([1]; overall) [%] | further results
1 | PEPTIDE1{[4MeHex].[dS].[dY].[dW].[D-Orn].[Orn].G.[D-Orn].W.T.I.G.[dS].A}$PEPTIDE1,PEPTIDE1,10:R3-14:R2$$$V2.0 | 3.2 | 
2 | PEPTIDE1{[4MeHex].[dS].[dY].[dW].[D-Orn].[Orn].G.[D-Orn].W.T.I.G.S.G}$PEPTIDE1,PEPTIDE1,10:R3-14:R2$$$V2.0 | 5.4 | final HPLC purity ([1]; HPLC and NMR, fractions assessed by HPLC and LC-MS): 95%; isolated yield ([1]; over 28 steps): 5%
3 | PEPTIDE1{[4MeHex].[dS].[dY].[dW].[D-Orn].[Orn].G.[D-Orn].W.T.I.G.[dS].G}$PEPTIDE1,PEPTIDE1,10:R3-14:R2$$$V2.0 | 6.8 | 
4 | PEPTIDE1{[4MeHex].[dS].[dY].[dW].[D-Orn].[Orn].G.[D-Orn].W.T.I.G.S.A}$PEPTIDE1,PEPTIDE1,10:R3-14:R2$$$V2.0 | 9.1 | 
5 | PEPTIDE1{[4MeHex].[dS].[dY].[dW].[D-Orn].[Orn].G.[D-Orn].W.[Dap].I.G.S.G}$PEPTIDE1,PEPTIDE1,10:R3-14:R2$$$V2.0 |  | isolated yield [2]: 18%
6 | PEPTIDE1{[4MeHex].[dS].[dY].[dW].[D-Orn].[Orn].G.[D-Orn].W.T.I.G.[dS].[dA]}$PEPTIDE1,PEPTIDE1,10:R3-14:R2$$$V2.0 | 5.7 | 
7 | PEPTIDE1{[4MeHex].[dS].[dY].[dW].[D-Orn].[Orn].G.[D-Orn].W.T.I.G.S.[dA]}$PEPTIDE1,PEPTIDE1,10:R3-14:R2$$$V2.0 | 9.5 | 

HELM strings list residues between dots; [ac] is acetyl, [am] amide, other brackets name non-standard units.
